Source: publication PMC12215968
These are yes or no findings as the source states them, for the method shown. Binding seen in cells or lysates may run through a third protein. Some entries that bind do so weakly or less than the wild type.

By UniProt entry, the sequences of proteins in these tests, tags left out.
UniProt P60896: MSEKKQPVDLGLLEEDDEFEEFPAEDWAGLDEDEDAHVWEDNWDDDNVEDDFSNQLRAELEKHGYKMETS

Biological target: Rpn7 (human) (UniProt Q15008)
Assay: cross-linking; human 26S proteasomes affinity-purified from native lysate of 293 HBTH-Rpn1 cells on streptavidin-sepharose; cross-linked on-bead with […] TSTO in PBS pH 7.5, 1 h, room temperature; cross-links identified by LC-MSn

Substance: Dss1 (from UniProt P60896 1-70)
- binding: binds
